Consider 3 molecules from patent US20200121814A1 (GENERAL HOSPITAL, published 2020).

Protein sequences, listed by entry. Tags and fused reporters are not part of them. Residues count along the entry.
UniProt P21860, residues 20-643: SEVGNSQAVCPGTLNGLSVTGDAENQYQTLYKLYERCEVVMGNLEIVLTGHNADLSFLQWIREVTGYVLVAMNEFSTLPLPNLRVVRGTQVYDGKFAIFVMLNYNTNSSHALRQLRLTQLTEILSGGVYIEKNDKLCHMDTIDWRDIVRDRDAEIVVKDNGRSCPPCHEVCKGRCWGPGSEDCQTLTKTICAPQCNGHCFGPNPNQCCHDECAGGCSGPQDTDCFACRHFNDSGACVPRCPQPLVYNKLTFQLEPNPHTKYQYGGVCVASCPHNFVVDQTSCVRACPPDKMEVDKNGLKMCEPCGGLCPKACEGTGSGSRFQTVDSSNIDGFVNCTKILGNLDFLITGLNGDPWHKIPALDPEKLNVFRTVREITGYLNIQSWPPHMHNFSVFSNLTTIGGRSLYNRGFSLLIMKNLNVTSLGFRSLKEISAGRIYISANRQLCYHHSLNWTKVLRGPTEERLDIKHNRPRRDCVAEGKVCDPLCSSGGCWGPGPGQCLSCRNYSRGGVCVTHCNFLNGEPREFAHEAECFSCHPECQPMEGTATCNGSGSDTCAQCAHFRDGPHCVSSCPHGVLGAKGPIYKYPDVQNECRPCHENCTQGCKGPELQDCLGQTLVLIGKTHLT

No constants are given. Whether binding was seen depends on the method and setting. Some results given as binding are weak or reduced against the parent protein; the word gives no strength.

The target of assay [1] is HER3 extracellular domain (ECD) (R&D Systems) (human) (UniProt P21860). The experiment in a line: phage ELISA on HER3 ECD.
The target is the same in assay [2]. The experiment in a line: phage binding to HER3, normalized to parent phage.

B1: phage displaying the HER3P1 peptide (phages 1, 5, 17, 19, 26) (peptide, not shown: large carriers)
peptide: CLPTKFRSC
With B1, the binding entry in assay [1] is “binds”.

B2: phage M4 (alanine mutant at position 5 of the HER3P1 binding sequence) (peptide, not shown: large carriers)
peptide: CLPTAFRSC
In the case of B2, in assay [2], the binding result was “binds”.

B3: phage M5 (alanine mutant at position 6 of the HER3P1 binding sequence) (peptide, not shown: large carriers)
peptide: CLPTKARSC
For B3, in assay [2], the binding result is “binds”.
